No constants are given. Whether binding was seen depends on the method and setting. Binding seen in cells or lysates may run through a third protein. Some binding calls cover weakened binding; strength is not graded here.

By UniProt entry, the sequences of proteins in these tests, tags left out.
UniProt P37238: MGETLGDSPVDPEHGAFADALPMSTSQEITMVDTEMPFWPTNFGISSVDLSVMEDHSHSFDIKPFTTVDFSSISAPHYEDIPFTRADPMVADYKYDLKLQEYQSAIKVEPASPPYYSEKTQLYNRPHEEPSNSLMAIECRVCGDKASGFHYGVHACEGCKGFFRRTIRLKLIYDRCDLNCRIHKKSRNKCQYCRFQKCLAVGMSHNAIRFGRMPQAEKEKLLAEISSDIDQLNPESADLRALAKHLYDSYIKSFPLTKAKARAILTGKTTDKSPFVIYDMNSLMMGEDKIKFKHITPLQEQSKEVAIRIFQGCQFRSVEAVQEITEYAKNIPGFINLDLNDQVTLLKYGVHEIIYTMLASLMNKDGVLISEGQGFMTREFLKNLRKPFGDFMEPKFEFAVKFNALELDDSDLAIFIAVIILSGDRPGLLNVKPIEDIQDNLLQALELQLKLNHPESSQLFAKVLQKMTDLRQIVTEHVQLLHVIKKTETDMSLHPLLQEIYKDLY
UniProt P05627: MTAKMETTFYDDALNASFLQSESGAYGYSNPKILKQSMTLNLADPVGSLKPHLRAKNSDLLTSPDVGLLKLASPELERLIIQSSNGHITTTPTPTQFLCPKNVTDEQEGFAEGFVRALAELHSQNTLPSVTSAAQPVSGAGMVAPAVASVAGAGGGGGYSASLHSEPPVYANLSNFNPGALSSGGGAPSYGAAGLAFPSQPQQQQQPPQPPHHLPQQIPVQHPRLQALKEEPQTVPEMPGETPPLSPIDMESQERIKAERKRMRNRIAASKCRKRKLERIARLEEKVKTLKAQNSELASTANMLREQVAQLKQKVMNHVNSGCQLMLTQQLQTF

This experiment deals with PPARγ (mouse (endogenous in TGEMs and iBMDM)) (UniProt P37238). Put plainly: co-IP; co-immunoprecipitation from TGEMs, endogenous proteins, western blot. (In general: Immunoblotting shows a protein as a band on a membrane.)

As to Jun (from UniProt P05627 1-334), the binding result was “binds”.

These data come from PMC6345992.
